Measured data: PubChem BioAssay AID504764 (Drosophila RNAi Screening Center, 2011)
Test: 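Genome-wide screen for regulators of Notch-driven gene expression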 (primary screen). Cell system: Drosophila Kc167 cells. Reagents: long dsRNA against Drosophila genes. Duration: about 5 days (4 days dsRNA, then 24 h after transfection). Challenge: transfection of constitutively active membrane-tethered Notch lacking the extracellular domain, read 24 h later. Measurement: 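Light from a Notch-responsive E(spl)m3 luciferase reporter under active Notch, with control-promoter and no-Notch reporter wells to normalise; raw counts from paired wells a and b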. Reading the numbers: induced reporter light, run 1, well a and induced reporter light, run 1, well b: higher = more light from the Notch target reporter with active Notch; control promoter light, run 1, well a and control promoter light, run 1, well b: higher = more light from the viral control promoter (cell number, transfection, viability); uninduced reporter light, run 1, well a: higher = more light from the Notch target reporter without active Notch. Call rule: 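Wells with low control signal or poorly matching duplicates excluded; duplicates averaged; per source plate, z beyond ±2 for induced/control log2 ratio or beyond ±1.8 for induced/uninduced marks a hit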. Calls: active = modifier hit (raised or lowered Notch signal); inactive = not a hit.
In all, the deposit lists about 22,000 reagents; this is a random part of those with a known target gene and a result. Of all reagents, 403 (1.9%) are marked active. 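Unnormalised raw counts per well; ratio z-scores behind the hit calls and whether each hit raises or lowers signal are not deposited.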 Reagents against one gene are numbered here. Not given: the amount of reagent.

Against CG14556, the entry reads induced reporter light, run 1, well a = 1.52e5; induced reporter light, run 1, well b = 1.12e5; control promoter light, run 1, well a = 1.71e5; control promoter light, run 1, well b = 1.48e5; uninduced reporter light, run 1, well a = 10900; inactive. Depletion of atlas gave: induced reporter light, run 1, well a = 2.33e5; induced reporter light, run 1, well b = 2.02e5; control promoter light, run 1, well a = 2.30e5; control promoter light, run 1, well b = 1.99e5; uninduced reporter light, run 1, well a = 16928; inactive. With knock-down of Orct2, the record shows induced reporter light, run 1, well a = 1.53e5; induced reporter light, run 1, well b = 1.55e5; control promoter light, run 1, well a = 1.46e5; control promoter light, run 1, well b = 1.75e5; uninduced reporter light, run 1, well a = 12220; inactive. CG15296 scored induced reporter light, run 1, well a = 1.33e5; induced reporter light, run 1, well b = 1.48e5; control promoter light, run 1, well a = 2.31e5; control promoter light, run 1, well b = 2.33e5; uninduced reporter light, run 1, well a = 9520; inactive. After knock-down of Cyp9c1, the screen gave induced reporter light, run 1, well a = 1.80e5; induced reporter light, run 1, well b = 2.22e5; control promoter light, run 1, well a = 1.84e5; control promoter light, run 1, well b = 1.66e5; uninduced reporter light, run 1, well a = 12955; inactive. Against Wwox, the values are induced reporter light, run 1, well a = 1.78e5; induced reporter light, run 1, well b = 1.94e5; control promoter light, run 1, well a = 1.88e5; control promoter light, run 1, well b = 1.90e5; uninduced reporter light, run 1, well a = 18680; inactive.

NP15.6 showed induced reporter light, run 1, well a = 1.47e5; induced reporter light, run 1, well b = 1.32e5; control promoter light, run 1, well a = 1.79e5; control promoter light, run 1, well b = 1.61e5; uninduced reporter light, run 1, well a = 11380; inactive. Silencing of dap came out at: induced reporter light, run 1, well a = 1.85e5; induced reporter light, run 1, well b = 1.95e5; control promoter light, run 1, well a = 1.68e5; control promoter light, run 1, well b = 1.83e5; uninduced reporter light, run 1, well a = 12125; inactive. For CG46441 the deposit lists induced reporter light, run 1, well a = 1.74e5; induced reporter light, run 1, well b = 1.61e5; control promoter light, run 1, well a = 2.58e5; control promoter light, run 1, well b = 2.86e5; uninduced reporter light, run 1, well a = 14670; inactive. Knock-down of CG6428 gave: induced reporter light, run 1, well a = 1.44e5; induced reporter light, run 1, well b = 1.28e5; control promoter light, run 1, well a = 2.44e5; control promoter light, run 1, well b = 2.50e5; uninduced reporter light, run 1, well a = 10660; inactive. Depletion of Ilp1 gave: induced reporter light, run 1, well a = 1.80e5; induced reporter light, run 1, well b = 1.55e5; control promoter light, run 1, well a = 2.14e5; control promoter light, run 1, well b = 1.56e5; uninduced reporter light, run 1, well a = 7405; inactive. Silencing of HLH3B gave: induced reporter light, run 1, well a = 95365; induced reporter light, run 1, well b = 1.03e5; control promoter light, run 1, well a = 1.79e5; control promoter light, run 1, well b = 1.87e5; uninduced reporter light, run 1, well a = 6265; inactive.

CG3868 scored induced reporter light, run 1, well a = 1.27e5; induced reporter light, run 1, well b = 1.02e5; control promoter light, run 1, well a = 91265; control promoter light, run 1, well b = 78795; uninduced reporter light, run 1, well a = 9325; inactive. With knock-down of CG30151, the screen gave induced reporter light, run 1, well a = 23710; induced reporter light, run 1, well b = 23800; control promoter light, run 1, well a = 25220; control promoter light, run 1, well b = 18500; uninduced reporter light, run 1, well a = 4660; inactive. CG16749 showed induced reporter light, run 1, well a = 78635; induced reporter light, run 1, well b = 1.06e5; control promoter light, run 1, well a = 1.45e5; control promoter light, run 1, well b = 1.17e5; uninduced reporter light, run 1, well a = 5395; inactive. For retinin, the values are induced reporter light, run 1, well a = 1.72e5; induced reporter light, run 1, well b = 1.54e5; control promoter light, run 1, well a = 1.66e5; control promoter light, run 1, well b = 1.66e5; uninduced reporter light, run 1, well a = 8740; inactive. For aos, the values are induced reporter light, run 1, well a = 1.84e5; induced reporter light, run 1, well b = 2.16e5; control promoter light, run 1, well a = 2.60e5; control promoter light, run 1, well b = 2.51e5; uninduced reporter light, run 1, well a = 9795; inactive. With knock-down of Ca-beta #1, the record shows induced reporter light, run 1, well a = 98680; induced reporter light, run 1, well b = 1.23e5; control promoter light, run 1, well a = 60775; control promoter light, run 1, well b = 93410; uninduced reporter light, run 1, well a = 14410; inactive.

Silencing of Ca-beta #2 resulted in: induced reporter light, run 1, well a = 1.15e5; induced reporter light, run 1, well b = 1.40e5; control promoter light, run 1, well a = 61315; control promoter light, run 1, well b = 97380; uninduced reporter light, run 1, well a = 20270; inactive. After knock-down of Ca-beta #3 the results were induced reporter light, run 1, well a = 1.32e5; induced reporter light, run 1, well b = 1.56e5; control promoter light, run 1, well a = 77505; control promoter light, run 1, well b = 1.20e5; uninduced reporter light, run 1, well a = 16995; inactive.

Reformatted: 2 of the entries above.
| target | dsRNA no. | induced reporter light, run 1, well a | induced reporter light, run 1, well b | control promoter light, run 1, well a | control promoter light, run 1, well b | uninduced reporter light, run 1, well a | Call |
| --- | --- | --- | --- | --- | --- | --- | --- |
| CG3868 | 1 | 1.27e5 | 1.02e5 | 91265 | 78795 | 9325 | inactive |
| CG30151 | 1 | 23710 | 23800 | 25220 | 18500 | 4660 | inactive |
